This list holds what a sample rich in targets with a hit left over. This is a noisy data set. The entries are a selection whose mix differs from that of the whole data set.

Protein sequences, listed by entry. Tags and fused reporters are not part of them. Lines headed by an entry give the natural chain unless they say otherwise; changes in a name come on top.
UniProt O60343: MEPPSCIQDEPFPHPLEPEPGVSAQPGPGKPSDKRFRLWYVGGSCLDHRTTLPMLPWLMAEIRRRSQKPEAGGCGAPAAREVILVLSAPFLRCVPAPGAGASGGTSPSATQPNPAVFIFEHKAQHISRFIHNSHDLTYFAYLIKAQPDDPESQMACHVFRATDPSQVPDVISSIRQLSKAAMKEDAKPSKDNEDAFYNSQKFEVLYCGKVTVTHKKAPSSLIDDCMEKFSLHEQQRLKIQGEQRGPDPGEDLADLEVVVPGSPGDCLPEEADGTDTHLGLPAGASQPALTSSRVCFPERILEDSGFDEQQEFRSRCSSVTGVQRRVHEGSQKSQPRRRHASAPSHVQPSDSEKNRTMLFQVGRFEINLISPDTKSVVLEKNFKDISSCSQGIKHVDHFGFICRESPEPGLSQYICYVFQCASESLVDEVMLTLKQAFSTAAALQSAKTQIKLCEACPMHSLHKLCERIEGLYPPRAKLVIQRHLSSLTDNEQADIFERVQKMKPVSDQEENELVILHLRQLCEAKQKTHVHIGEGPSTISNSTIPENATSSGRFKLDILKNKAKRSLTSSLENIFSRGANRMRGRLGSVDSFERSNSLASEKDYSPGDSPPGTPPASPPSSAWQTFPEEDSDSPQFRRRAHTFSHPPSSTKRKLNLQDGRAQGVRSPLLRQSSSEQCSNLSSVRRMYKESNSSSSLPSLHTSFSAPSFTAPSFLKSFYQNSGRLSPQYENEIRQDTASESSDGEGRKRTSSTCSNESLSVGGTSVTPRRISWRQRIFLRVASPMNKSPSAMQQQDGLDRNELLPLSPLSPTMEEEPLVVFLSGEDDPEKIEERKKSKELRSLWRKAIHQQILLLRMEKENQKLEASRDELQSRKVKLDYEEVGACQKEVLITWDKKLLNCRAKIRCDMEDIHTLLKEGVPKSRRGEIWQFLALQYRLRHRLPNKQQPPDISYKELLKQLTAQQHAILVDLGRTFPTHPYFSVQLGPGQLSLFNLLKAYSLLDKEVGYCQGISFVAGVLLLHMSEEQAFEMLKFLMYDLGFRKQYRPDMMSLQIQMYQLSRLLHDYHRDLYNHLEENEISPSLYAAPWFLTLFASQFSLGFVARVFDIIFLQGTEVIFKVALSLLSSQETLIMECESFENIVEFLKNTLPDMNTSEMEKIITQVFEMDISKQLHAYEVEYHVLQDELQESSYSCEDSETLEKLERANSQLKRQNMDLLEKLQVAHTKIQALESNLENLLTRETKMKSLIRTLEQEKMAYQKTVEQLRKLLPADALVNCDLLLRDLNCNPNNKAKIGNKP
UniProt O60232: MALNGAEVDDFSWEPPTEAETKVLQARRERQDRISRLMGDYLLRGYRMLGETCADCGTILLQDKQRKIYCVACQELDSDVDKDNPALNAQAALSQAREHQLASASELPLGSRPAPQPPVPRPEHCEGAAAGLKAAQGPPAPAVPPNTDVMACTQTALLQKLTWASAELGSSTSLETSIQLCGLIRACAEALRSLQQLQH
UniProt O75083: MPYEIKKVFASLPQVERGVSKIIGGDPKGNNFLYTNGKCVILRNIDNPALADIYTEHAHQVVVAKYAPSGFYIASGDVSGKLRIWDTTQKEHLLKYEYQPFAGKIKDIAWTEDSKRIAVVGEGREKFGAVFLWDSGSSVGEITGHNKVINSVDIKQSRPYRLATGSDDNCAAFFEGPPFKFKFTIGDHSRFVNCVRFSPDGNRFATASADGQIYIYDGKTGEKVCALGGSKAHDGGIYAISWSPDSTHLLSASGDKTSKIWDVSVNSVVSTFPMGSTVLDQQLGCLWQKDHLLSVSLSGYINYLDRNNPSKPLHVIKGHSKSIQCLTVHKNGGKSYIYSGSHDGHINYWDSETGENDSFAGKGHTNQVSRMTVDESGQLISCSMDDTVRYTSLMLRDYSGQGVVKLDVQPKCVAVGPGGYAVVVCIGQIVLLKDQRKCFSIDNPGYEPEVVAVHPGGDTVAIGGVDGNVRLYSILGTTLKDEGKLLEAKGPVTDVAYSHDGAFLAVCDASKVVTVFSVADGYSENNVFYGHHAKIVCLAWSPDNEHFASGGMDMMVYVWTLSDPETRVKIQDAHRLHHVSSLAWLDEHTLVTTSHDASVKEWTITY
UniProt O60701: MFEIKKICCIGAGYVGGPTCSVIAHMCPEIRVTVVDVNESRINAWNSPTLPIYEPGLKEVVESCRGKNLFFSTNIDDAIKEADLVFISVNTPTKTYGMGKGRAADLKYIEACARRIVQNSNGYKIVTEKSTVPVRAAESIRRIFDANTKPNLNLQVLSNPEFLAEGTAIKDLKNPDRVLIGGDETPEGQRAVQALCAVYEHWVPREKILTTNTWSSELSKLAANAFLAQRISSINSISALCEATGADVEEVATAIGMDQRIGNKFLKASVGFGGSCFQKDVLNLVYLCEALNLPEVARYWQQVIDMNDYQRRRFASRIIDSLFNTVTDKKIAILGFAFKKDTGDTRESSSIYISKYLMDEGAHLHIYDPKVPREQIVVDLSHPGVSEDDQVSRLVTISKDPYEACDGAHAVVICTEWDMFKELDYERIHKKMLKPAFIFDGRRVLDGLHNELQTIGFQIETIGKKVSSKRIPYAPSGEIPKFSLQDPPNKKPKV
UniProt O43583: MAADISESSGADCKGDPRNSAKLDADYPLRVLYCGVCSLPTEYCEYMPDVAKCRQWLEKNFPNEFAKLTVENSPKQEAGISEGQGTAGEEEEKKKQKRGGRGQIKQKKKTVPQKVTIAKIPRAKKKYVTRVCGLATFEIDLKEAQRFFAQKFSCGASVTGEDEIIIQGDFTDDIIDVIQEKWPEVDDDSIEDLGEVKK
UniProt O75448: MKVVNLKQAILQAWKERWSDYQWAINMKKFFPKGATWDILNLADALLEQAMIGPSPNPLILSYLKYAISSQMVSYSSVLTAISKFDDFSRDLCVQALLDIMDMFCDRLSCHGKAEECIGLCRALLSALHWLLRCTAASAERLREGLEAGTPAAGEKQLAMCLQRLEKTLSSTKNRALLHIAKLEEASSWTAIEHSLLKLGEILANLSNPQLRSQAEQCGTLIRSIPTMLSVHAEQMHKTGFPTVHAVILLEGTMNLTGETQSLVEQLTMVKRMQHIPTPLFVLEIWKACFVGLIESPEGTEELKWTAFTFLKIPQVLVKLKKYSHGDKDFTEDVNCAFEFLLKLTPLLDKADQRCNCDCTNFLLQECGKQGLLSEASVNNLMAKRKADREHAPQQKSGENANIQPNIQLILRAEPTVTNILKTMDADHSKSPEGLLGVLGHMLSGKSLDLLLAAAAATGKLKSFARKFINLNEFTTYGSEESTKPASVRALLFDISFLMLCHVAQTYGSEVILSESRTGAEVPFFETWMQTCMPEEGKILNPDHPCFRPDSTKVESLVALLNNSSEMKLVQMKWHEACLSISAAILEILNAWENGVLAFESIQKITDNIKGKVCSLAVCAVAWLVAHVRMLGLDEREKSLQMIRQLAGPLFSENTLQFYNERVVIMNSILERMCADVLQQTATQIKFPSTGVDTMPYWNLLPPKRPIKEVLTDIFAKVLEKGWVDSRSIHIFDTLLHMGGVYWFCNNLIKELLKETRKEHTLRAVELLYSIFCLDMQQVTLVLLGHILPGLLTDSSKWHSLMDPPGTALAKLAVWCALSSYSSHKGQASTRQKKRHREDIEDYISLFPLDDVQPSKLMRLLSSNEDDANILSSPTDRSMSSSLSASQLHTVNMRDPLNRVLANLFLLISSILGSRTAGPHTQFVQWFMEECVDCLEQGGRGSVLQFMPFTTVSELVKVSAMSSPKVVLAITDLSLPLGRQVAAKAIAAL
UniProt O43491, whole entry, looked up: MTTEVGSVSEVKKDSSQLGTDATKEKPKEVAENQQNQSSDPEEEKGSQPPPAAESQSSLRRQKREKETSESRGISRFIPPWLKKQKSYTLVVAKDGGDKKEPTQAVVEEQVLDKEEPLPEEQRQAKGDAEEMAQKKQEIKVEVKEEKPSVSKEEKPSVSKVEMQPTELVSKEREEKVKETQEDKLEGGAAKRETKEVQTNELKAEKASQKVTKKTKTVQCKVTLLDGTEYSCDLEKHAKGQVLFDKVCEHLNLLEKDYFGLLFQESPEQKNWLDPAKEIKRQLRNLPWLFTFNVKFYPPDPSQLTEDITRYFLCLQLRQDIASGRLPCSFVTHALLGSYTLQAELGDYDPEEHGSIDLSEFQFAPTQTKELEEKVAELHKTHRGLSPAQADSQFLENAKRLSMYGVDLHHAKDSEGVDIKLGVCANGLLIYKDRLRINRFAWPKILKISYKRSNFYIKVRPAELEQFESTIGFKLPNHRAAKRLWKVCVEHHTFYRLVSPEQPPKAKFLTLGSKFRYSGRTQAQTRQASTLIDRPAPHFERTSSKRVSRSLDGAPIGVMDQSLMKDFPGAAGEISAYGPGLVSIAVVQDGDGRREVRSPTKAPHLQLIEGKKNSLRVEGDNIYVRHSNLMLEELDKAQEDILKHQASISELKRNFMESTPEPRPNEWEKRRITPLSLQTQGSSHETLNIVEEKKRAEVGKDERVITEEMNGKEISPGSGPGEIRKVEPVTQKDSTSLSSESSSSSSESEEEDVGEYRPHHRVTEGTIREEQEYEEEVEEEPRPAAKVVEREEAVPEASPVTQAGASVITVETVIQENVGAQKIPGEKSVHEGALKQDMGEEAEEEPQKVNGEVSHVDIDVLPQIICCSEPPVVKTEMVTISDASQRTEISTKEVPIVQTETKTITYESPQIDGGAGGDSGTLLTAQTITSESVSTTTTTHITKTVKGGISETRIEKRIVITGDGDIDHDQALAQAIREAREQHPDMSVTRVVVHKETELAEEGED
UniProt O75528: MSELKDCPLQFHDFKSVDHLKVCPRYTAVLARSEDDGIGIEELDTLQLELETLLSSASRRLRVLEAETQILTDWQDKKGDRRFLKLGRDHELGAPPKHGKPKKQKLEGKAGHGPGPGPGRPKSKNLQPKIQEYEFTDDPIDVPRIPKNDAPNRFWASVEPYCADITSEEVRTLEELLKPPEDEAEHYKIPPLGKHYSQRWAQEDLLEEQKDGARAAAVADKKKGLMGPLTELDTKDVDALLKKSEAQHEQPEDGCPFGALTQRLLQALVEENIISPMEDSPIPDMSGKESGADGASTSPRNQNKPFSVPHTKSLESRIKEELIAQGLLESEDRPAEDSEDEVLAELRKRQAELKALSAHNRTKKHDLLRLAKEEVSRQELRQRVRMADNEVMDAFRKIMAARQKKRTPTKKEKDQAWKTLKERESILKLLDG
UniProt O60307: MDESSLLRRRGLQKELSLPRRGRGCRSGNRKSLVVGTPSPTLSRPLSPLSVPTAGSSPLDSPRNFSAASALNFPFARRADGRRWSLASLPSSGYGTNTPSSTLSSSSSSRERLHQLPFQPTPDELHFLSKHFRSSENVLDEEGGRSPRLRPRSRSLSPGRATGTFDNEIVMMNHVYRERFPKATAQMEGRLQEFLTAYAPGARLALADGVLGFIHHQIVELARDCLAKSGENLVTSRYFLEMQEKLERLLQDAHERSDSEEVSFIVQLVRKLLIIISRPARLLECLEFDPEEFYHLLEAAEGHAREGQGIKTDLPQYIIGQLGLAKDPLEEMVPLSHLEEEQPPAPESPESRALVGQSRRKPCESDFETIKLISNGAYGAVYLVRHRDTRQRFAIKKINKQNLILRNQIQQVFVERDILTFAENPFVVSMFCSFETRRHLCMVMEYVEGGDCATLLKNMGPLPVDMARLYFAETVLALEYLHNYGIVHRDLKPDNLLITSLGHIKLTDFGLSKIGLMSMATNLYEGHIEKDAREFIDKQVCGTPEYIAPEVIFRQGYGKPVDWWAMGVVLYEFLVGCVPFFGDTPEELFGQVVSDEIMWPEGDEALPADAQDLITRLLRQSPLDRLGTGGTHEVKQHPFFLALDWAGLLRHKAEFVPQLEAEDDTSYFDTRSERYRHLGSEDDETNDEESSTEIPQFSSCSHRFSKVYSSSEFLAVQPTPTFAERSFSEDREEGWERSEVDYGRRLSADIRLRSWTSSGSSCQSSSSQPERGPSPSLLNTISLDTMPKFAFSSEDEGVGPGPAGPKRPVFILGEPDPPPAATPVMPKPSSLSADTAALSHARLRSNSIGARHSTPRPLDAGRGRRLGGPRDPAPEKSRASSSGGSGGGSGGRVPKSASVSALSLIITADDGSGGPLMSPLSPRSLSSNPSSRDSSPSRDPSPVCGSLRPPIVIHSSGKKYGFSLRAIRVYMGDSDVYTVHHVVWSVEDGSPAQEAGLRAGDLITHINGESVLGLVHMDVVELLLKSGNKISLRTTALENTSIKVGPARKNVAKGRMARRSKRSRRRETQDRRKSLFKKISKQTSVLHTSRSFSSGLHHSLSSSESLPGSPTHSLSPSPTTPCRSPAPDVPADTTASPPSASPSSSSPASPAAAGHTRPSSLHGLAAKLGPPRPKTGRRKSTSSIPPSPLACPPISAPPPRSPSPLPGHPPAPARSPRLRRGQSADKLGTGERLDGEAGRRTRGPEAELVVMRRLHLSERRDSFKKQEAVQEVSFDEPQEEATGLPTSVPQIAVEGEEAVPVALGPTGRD

Compound in the assay: COC(=O)/C=C/c1ccccc1 [methyl cinnamate]
Kind of assay: log2 ratio of iodoacetamide-alkyne labeling of the cysteine site, DMSO over compound (competition); higher = stronger covalent engagement of the cysteine by the compound, active = 1 or more. The following applies: 500 µM; treatment time 1 h; system: HEK293T cell lysate. In a few lines: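 Electrophile (500 µM) or vehicle was added to HEK293T lysate (2 mg/mL) for 1 h at ambient temperature before iodoacetamide alkyne labelling (1 h) and click coupling to sCIP-TMT reagents. After pooling, overnight trypsin digestion at 37 °C, streptavidin enrichment and acid elution, peptides were measured by Orbitrap Eclipse LC-MS/MS with FAIMS and quantified in FragPipe. Each cysteine's log2 competition ratio compares mean control-channel with mean compound-channel reporter intensity, control over compound. Data came from duplicate channels across three replicates, excluding cysteines quantified in only one replicate.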
In the case of TBC1D4 C74 (UniProt O60343), the “log2 ratio of iodoacetamide-alkyne labeling” value (“log2 ratio” for short) was inactive: 0.236. For MGRN1 C428 (UniProt O60291), the “log2 ratio” value was inactive: -0.118. As for CPD C582 (UniProt O75976), the “log2 ratio” value is inactive: -0.0142. Under USO1 C303 (UniProt O60763) stands inactive: 0.319; under SART1 C645 (UniProt O43290), inactive: 0.0313; under SGTA C153 (UniProt O43765), inactive: -0.0128. With XRCC3 C86 (UniProt O43542), the “log2 ratio” value is inactive: -0.322. Under ULK1 C426 (UniProt O75385) stands inactive: 0.161; under HTATSF1 C462 (UniProt O43719), inactive: 0.449; under UniProt O75153_C1196, inactive: 0.355. Under FLNB C991 (UniProt O75369) stands inactive: -0.00659. With SNX2 C413 (UniProt O60749), the “log2 ratio” value is inactive: 0.569. For UniProt O60232_C73, the “log2 ratio” value was inactive: 0.305. As to PTCD1 C183 (UniProt O75127), the “log2 ratio” value was inactive: 0.104. Under TACC1 C174 (UniProt O75410) stands inactive: 0.242; under TADA2A C20 (UniProt O75478), inactive: 0.0234; under GLRX3 C146 (UniProt O76003), inactive: -0.144.

Take ACSL4 C420 (UniProt O60488): the “log2 ratio” value was inactive: 0.122.

Turning to WDR1 C170 (UniProt O75083), the “log2 ratio” value is inactive: 0.436. Under CSDE1 C53 (UniProt O75534) stands inactive: 0.252; under PAK3 C424 (UniProt O75914), inactive: 0.281. Under ZW10 C650 (UniProt O43264) stands inactive: 0.0466. As to UGDH C241 (UniProt O60701), the “log2 ratio” value is inactive: 0.24. Under TIPRL C14 (UniProt O75663) stands inactive: 0.185; under DENR C13 (UniProt O43583), inactive: 0.272.

Consider DENR C132 (UniProt O43583), for which the “log2 ratio” value was inactive: 0.226. Under MED24 C336 (UniProt O75448) stands inactive: 0.129; under LRCH4 C134 (UniProt O75427), inactive: 0.0978.

As to EPB41L2 C424 (UniProt O43491), the “log2 ratio” value was inactive: 0.149.

UTP20 C2058 (UniProt O75691): the “log2 ratio” value was inactive: 0.275. As to PSIP1 C204 (UniProt O75475), the “log2 ratio” value was inactive: 0.239. Under PRKRA C106 (UniProt O75569) stands inactive: 0.216; under ZFC3H1 C220 (UniProt O60293), inactive: -0.292. Under HTATSF1 C295 (UniProt O43719) stands inactive: -0.332; under UniProt O75153_C88, inactive: -0.0483; under UniProt O75528_C7, inactive: 0.315. Under ANKRD17 C906 (UniProt O75179) stands inactive: 0.344; under MAST3 C541 (UniProt O60307), inactive: 0.423.

Values taken from the supplement of paper PMC11006884.
